From ChEMBL document CHEMBL3988442, “University of Dundee, Small-Polar-MMV Screening Library” (2021).

Chains of the proteins cited; added tags and fusions are not shown.
UniProt P9WFT3, whole entry: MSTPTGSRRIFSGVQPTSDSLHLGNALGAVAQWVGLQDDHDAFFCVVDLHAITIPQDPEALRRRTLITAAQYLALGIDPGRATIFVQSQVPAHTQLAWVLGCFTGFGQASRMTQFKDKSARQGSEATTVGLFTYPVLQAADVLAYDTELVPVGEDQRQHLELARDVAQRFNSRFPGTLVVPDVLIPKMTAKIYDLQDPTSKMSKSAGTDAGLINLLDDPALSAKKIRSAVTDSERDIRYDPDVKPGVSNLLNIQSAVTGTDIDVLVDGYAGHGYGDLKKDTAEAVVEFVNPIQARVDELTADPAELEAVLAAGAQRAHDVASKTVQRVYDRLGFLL
UniProt I6X8D2, whole entry: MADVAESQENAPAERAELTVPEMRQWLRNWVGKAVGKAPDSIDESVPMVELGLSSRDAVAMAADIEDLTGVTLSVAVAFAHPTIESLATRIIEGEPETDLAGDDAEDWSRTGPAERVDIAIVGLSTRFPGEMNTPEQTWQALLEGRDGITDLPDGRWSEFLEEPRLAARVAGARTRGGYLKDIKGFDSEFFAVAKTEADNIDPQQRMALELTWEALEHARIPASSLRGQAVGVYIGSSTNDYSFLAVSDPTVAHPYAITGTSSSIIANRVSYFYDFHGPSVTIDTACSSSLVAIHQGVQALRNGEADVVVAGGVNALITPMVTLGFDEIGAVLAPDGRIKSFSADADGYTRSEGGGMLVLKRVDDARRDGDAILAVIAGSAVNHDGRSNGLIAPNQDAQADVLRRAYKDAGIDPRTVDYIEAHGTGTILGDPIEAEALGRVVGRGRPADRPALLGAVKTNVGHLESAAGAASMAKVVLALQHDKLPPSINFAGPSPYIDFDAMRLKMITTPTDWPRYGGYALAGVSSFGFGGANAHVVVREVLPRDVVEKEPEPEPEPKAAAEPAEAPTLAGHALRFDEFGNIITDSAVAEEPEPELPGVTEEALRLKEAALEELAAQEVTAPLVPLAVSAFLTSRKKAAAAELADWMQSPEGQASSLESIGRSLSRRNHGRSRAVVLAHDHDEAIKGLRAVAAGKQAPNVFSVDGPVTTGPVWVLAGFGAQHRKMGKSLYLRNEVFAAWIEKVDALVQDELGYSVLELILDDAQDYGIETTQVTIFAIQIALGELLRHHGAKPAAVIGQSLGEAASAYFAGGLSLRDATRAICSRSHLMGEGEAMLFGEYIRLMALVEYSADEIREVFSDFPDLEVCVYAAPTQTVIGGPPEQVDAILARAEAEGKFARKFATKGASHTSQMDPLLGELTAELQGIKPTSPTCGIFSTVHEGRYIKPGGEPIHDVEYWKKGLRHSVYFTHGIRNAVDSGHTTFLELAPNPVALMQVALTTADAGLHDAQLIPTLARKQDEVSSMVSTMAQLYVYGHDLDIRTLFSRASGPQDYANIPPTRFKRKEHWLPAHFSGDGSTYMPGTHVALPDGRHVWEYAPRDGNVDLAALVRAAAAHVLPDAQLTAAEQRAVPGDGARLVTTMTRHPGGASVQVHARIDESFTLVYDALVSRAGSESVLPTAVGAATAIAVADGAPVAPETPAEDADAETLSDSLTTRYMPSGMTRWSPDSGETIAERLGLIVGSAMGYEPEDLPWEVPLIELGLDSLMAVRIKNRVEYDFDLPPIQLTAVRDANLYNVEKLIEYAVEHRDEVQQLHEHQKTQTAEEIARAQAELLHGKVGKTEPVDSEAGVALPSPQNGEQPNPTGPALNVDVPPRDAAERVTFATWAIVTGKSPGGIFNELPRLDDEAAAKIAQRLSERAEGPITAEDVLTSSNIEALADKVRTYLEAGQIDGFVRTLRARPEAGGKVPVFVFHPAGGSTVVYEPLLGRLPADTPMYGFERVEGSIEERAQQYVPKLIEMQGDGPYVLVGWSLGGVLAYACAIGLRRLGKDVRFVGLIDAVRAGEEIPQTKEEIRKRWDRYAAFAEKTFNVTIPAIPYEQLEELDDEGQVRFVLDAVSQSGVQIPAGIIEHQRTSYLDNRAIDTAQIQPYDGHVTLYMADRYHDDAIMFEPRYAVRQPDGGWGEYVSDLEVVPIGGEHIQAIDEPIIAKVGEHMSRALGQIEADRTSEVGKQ
UniProt P9WNZ1, whole entry: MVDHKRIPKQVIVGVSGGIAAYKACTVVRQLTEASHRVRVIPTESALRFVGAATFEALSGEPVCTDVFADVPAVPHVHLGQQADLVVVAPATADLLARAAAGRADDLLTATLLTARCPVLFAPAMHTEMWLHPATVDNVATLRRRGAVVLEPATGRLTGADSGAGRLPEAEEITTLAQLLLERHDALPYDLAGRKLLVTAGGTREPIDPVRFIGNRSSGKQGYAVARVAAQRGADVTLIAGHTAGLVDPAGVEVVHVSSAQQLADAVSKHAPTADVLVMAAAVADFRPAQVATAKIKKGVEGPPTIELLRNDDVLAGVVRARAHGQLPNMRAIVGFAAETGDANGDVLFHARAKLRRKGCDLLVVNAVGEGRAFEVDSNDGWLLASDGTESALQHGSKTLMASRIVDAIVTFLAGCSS

MtTrpRS: 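Tryptophan-tRNA ligase, Mycobacterium tuberculosis (UniProt P9WFT3). Enzyme assay of tryptophanyl-tRNA synthetase; the read-out is not stated. Compounds at 10 µM. Direction is not recorded; retested compounds ran higher, which suggests that high means inhibition. About 65,000 compounds were tested under these conditions; 0.098% (about 64) showed 50% or more at least once.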
Pks13 thioesterase: 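Polyketide synthase Pks13, Mycobacterium tuberculosis (UniProt I6X8D2). Enzyme assay of the thioesterase domain of polyketide synthase 13; the read-out is not stated. Concentration: 30 µM. Higher reads as stronger inhibition (inferred from which compounds were picked for retests). Of about 67,000 compounds tested this way, about 300 (0.46%) reached 50% or more in at least one test.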
CoaBC: 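Coenzyme A biosynthesis protein CoaBC, Mycobacterium tuberculosis (UniProt P9WNZ1). Enzyme assay of CoaBC with a phosphate dye (Biomol Green) read at 650 nm. Tested at 30 µM. Higher reads as stronger inhibition, judged from the few compounds that gave an IC50. Most strong results did not repeat in a second test. About 67,000 compounds were tested under these conditions; 0.06% (about 40) showed 50% or more at least once.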

Each number is a percent effect as filed. How 0% and 100% were set is not recorded. Most values in the screen are low, and negative values occur. This is an unselected part of the compounds tested. A dash means the value is not listed here; it may have been measured.

Compound	MtTrpRS	Pks13 thioesterase	CoaBC
COc1ccc(CN2CCN(C3CCc4ccccc4C3)CC2)cc1O (stereo not shown)	-7.204	-23.02	5.926
CN(C)c1nccc(C2CCCN(C(=O)CO)C2)n1 (stereo not shown)	-9.255	-5.34	3.09
CCN(Cc1cn(CC2CCNCC2)nn1)CC1CCCO1 (stereo not shown)	1.212	1.102	-6.184
COCCNc1cc(-c2ccccc2C(=O)O)c2cc[nH]c2n1	-3.754	14.35	8.508
CNC(=O)CNC(=O)Nc1cc(-c2ccccc2)ns1	6.237	28.43	5.443
CC1CCN(Cc2cnc(S(=O)(=O)CC3CC3)n2CC2CCCO2)CC1 (stereo not shown)	7.583	-1.711	-10.13
Cc1ccc(C(=O)N2CCO[C@H]3[C@H](OCc4ccccn4)CC[C@@H]32)o1	-0.3687	-	0.6536
Cc1cs/c(=N/C(=O)c2csc(NCC(C)C)n2)[nH]1	-15.45	-35.57	3.576
CCCC(=O)NC1CCCN(Cc2cccs2)C1 (stereo not shown)	0.306	1.753	-3.89
C=C(C)CN1C(=O)CC(Cc2ccc(F)cc2)C1=O (stereo not shown)	3.681	3.306	3.178
COC1CCN(C(=O)c2nn(-c3ccc(C(C)C)cc3)cc2O)CC1	10.47	10.37	-10.8
CNC(=O)C1CN(c2ccnc(C)n2)CCN(C2CCOCC2)C1 (stereo not shown)	-5.004	-1.451	1.214
CCCc1ncc(C(=O)c2ccc(OC)cc2)n1C	-1.375	-7.215	-18.23
Cc1nc(-c2ccccc2)n(CC(=O)NC(C)(C)C)n1	-7.203	0.8932	-23.4
CC(C(=O)NC1CC1)S(=O)(=O)Cc1csc(-c2cccs2)n1 (stereo not shown)	-3.361	0.004402	-2.948
Cc1ccc(C(=O)N2CCC(Oc3cccc(C)c3C)CC2)c(=O)[nH]1	1.695	-18.49	3.676
Cc1ccccc1C(=O)N1CCC2(CCC(C(=O)NCC3CC3)O2)CC1 (stereo not shown)	-5.307	-18.51	-3.529
Cc1cccnc1CN1CCN(C(=O)c2cc(Cl)c[nH]c2=O)CC1	-0.1006	-25.66	15.84
Cc1nc2c(c(NCc3nc4ccccc4s3)n1)CCNCC2	-7.542	-46.57	-34.41
Cc1ccsc1CN(CCCC(F)(F)F)Cc1ccccn1	3.183	-11.33	2.296
Clc1cc(Cl)cc(CN2CCC(NCc3cc[nH]n3)CC2)c1	-1.56	-8.289	-32.02
CSCc1cc(F)ccc1CNC(=O)N1CCOCC1	-1.625	-20.37	2.664
COc1cc2c(nn1)CCN(Cc1nc(Cc3ccccc3)no1)C2	1.314	2.564	-4.455
CCc1nc(CN2CCCC(NCc3nnc(C4CC4)o3)C2)no1 (stereo not shown)	4.769	-12.99	6.154
COCCO[C@H]1CCN(Cc2cnn(C)c2)[C@H]1Cc1cccnc1	-1.543	-6.829	0.2469
Cc1csc(N2CCN(CC(=O)Nc3cc(C)nn3C)CC2C)n1 (stereo not shown)	1.258	-5.692	13.08
Cc1nnn2c1COC(CNCc1ccccn1)C2 (stereo not shown)	-0.07047	-42.29	5.708
Cc1ccc2nc(CN3CCN(C4CCCCC4)C(=O)C3)cc(O)c2c1	-3.191	-8.026	-128.5
COc1cccc(CN(C(=O)Nc2nncs2)C2CCC(O)CC2)c1 (stereo not shown)	-5.263	-	-
Cc1cc(NC(=O)Cn2cnc(-c3cccs3)cc2=O)no1	2.812	-32.62	3.594
O=S1(=O)NCC2(CCCN(Cc3cccnc3)C2)Oc2ncccc21 (stereo not shown)	7.001	-25.73	2.368
CCSc1cncc(N2CCC(C(=O)Nc3ccccn3)CC2)n1	1.899	16.36	10.51
O=C(CC1CCN(CCN2CCCCC2)CC1)N1CCOCC1	3.579	-13.71	0.609
CC(C)OCCCNC(=O)NCc1cccc(-n2ccnc2)c1	3.885	-5.843	-3.291
CN1CCN(c2ccc(NS(=O)(=O)c3ccc(Br)s3)cc2C(=O)O)CC1	6.616	-32.62	4.875
CCCc1cnc(C)nc1N1CCC(Cc2cccc(C(N)=O)c2)C1 (stereo not shown)	-2.074	8.891	4.426
Cc1cc(C)nc(NC(C)Cc2cnccn2)n1 (stereo not shown)	-1.447	-0.8816	1.366
CC(C)N(CC(N)=O)Cc1csc(COc2ccc(F)cc2)n1	3.068	-39.25	-0.2571
O=C1N(Cc2cccc(F)c2F)CCCC1(O)CN1CCCOCC1 (stereo not shown)	7.282	-12.44	-40.62
CC(=O)NCCCSC1CCCN(c2ccccc2F)C1=O (stereo not shown)	-5.43	-1.999	2.805
CSCC[C@H]1CN2CCC[C@H]2CN1Cc1coc2ccc(C)cc2c1=O	-4.976	2.318	-1.577
Cc1nc(N(C)C)nc2c1COCC21CCN(C(=O)NC(C)C)C1 (stereo not shown)	-1.876	4.126	-5.176
CCOC(=O)C1CCN(C(=O)Cc2c(C)nc(C)[nH]c2=O)CC1	16.9	41.82	5.063
Cc1cccnc1CC(C)NC1CCSCC1 (stereo not shown)	-1.71	-19.08	10.08
CC(C1CC1)n1nccc1NC(=O)CN(C)C(=O)OC(C)(C)C (stereo not shown)	-0.6173	-3.441	3.431
Cc1cc(N2CCN(c3ccc(=O)[nH]n3)CC2)nc(-c2ccncc2)n1	-4.919	1.22	-3.03
Cc1nc(C2CCCN2CCCc2nc3ccccc3o2)no1 (stereo not shown)	21.05	-7.089	-4.075
CCN(C)c1ncnc2c1CCN(Cc1ccc(F)cc1)CC2	1.256	1.759	5.732
O=C(C1CCC1)N1CCC2(CC1)CNCCO2	-2.616	15.14	-
CCN1C(=O)C(C#N)=C(C)/C(=C/C2=Cc3ccccc3OC2)C1=O	7.913	-22.46	-2.525
Cc1nc(CN2Cc3cn(C)nc3C(COCC3CC3)C2)cs1 (stereo not shown)	3.539	-20.48	-1.015
CC(NC(=O)c1ccsc1)c1ccc2c(c1)NC(=O)CO2 (stereo not shown)	-6.466	-9.249	7.478
CCn1cc(S(=O)(=O)NC2CCCN(CC3CCCCC3)C2)cn1 (stereo not shown)	7.923	-22.56	1.709
Fc1cccc(-n2ccc(CN3CCCC3Cn3cncn3)n2)c1 (stereo not shown)	-2.726	1.514	5.682
C[C@@H]1CN(S(=O)(=O)N2CCOCC2)C[C@@]1(O)C1CC1	-2.355	-	0
CSCC1CCN(C(=O)Cn2ncc(N3CCCCC3)cc2=O)CC1	-2.33	-5.212	1.394
CNC(=O)N1CCC(NC(=O)c2cnn(C)c2)CC1	-0.4259	-8.499	4.099
COc1ncccc1CN1CCc2[nH]nc(C(=O)N(C)C)c2C1	-3.343	-17.36	1.931
Cc1ccc(-c2noc(CN3CCOC(Cn4cccn4)C3)n2)cc1 (stereo not shown)	-5.587	-7.171	9.252
CC(C)C1CN(c2ncccn2)CCC(=O)N1Cc1ccc(F)cc1 (stereo not shown)	1.706	-7.878	2.954
CC(=O)N1CCCC(C(=O)NCCc2nc(Cc3ccccc3)no2)C1 (stereo not shown)	1.729	-21.64	2.723
O=C(N1CCOCC1)[C@@]12CCO[C@@H]1CCN(C1CCCC1)C2	-4.979	-4.891	5.514
O=C(NCC(F)(F)F)C1CSCN1S(=O)(=O)c1cccc(F)c1 (stereo not shown)	-4.079	10.73	0.6329
O=C(NC1CCc2ccccc2C1)C1CCN(Cc2ccco2)CC1 (stereo not shown)	0.1555	-11.15	3.511
CCC(CC(=O)NS(=O)(=O)C(C)C)c1ccccc1 (stereo not shown)	22.99	5.697	14.8
O=c1[nH]c(N2CCOCC2)nc2c1CN(Cc1cccnc1)CC2	-	2.392	-0.9804

6 of the entries, repeated:

| Compound | MtTrpRS | Pks13 thioesterase | CoaBC |
|---|---|---|---|
| `Cc1nnn2c1COC(CNCc1ccccn1)C2` (stereo not shown) | -0.07047 | -42.29 | 5.708 |
| `Cc1ccc2nc(CN3CCN(C4CCCCC4)C(=O)C3)cc(O)c2c1` | -3.191 | -8.026 | -128.5 |
| `CCSc1cncc(N2CCC(C(=O)Nc3ccccn3)CC2)n1` | 1.899 | 16.36 | 10.51 |
| `Cc1cccnc1CC(C)NC1CCSCC1` (stereo not shown) | -1.71 | -19.08 | 10.08 |
| `CCc1nc(CN2CCCC(NCc3nnc(C4CC4)o3)C2)no1` (stereo not shown) | 4.769 | -12.99 | 6.154 |
| `Cc1ccc(C(=O)N2CCO[C@H]3[C@H](OCc4ccccn4)CC[C@@H]32)o1` | -0.3687 | - | 0.6536 |